Measurements reported in PubChem BioAssay AID1259308 (NCATS, 2017)

- Test: 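Knock-downs that increase output of a recombinant reporter protein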 (primary screen)
- Cells: human HEK293 embryonic kidney cells stably expressing firefly luciferase (HEK-CMV-Luc2-Hygro)
- Reagent: single siRNA against human genes, 0.8 pmol siRNA per well
- Duration: 72 h
- Read-out: 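Luciferase light (ONE-Glo) measured on one replicate plate set and viability (CellTiter-Glo) on the other, scaled to a negative control siRNA, with robust z-scores and luciferase per cell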
- Reading the numbers: total luciferase, z-score: higher = more reporter protein produced
- Active means: 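Active when the median/MAD z-score for overall luciferase is greater than 3; a gene was taken forward for validation with new siRNAs if at least two of its three siRNAs passed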
- Calls: active = raised luciferase; inactive = no rise
In all, the deposit lists about 59,000 reagents; this is an unselected part. In the full data, about 1,510 (2.6%) are marked active. 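Calls use total luciferase alone and ignore viability, so some active siRNAs may act by altering cell number.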 Not all columns of the deposit are shown.

What did the screen give for PLXNA3 (plexin A3) [SID160731516]?
total luciferase, z-score: 0.24; Outcome: inactive

With PLXNA3 (plexin A3) [SID160743795], what does the deposit list?
total luciferase, z-score: -1.28; Outcome: inactive

With PLXNA3 (plexin A3) [SID160743796], what does the deposit list?
total luciferase, z-score: -0.435; Outcome: inactive

For OR52E6 (olfactory receptor family 52 subfamily E member 6) [SID160766374], how do the results read?
total luciferase, z-score: -0.188; Outcome: inactive

For OR52E6 (olfactory receptor family 52 subfamily E member 6) [SID160766375], what was measured?
total luciferase, z-score: -1.13; Outcome: inactive

With OR52E6 (olfactory receptor family 52 subfamily E member 6) [SID160766376], what does the deposit list?
total luciferase, z-score: 4.27; Outcome: active

With TPRKB (TP53RK binding protein) [SID160733477], how do the results read?
total luciferase, z-score: -0.438; Outcome: inactive

With TPRKB (TP53RK binding protein) [SID160739826], how do the results read?
total luciferase, z-score: -0.695; Outcome: inactive

What is on record for TPRKB (TP53RK binding protein) [SID160739827]?
total luciferase, z-score: -0.379; Outcome: inactive

Which result is listed for OSBPL3 (oxysterol binding protein like 3) [SID160730914]?
total luciferase, z-score: 0.0199; Outcome: inactive

What is on record for OSBPL3 (oxysterol binding protein like 3) [SID160737486]?
total luciferase, z-score: -0.364; Outcome: inactive

For OSBPL3 (oxysterol binding protein like 3) [SID160737487], how do the results read?
total luciferase, z-score: 0.332; Outcome: inactive

Quoted from the listing, 2 entries:
OSBPL3 (oxysterol binding protein like 3) [SID160730914] | total luciferase, z-score: 0.0199; Outcome: inactive
OSBPL3 (oxysterol binding protein like 3) [SID160737486] | total luciferase, z-score: -0.364; Outcome: inactive
